Experimental data published in patent US20090041806A1, “USE OF PRODRUGS OF GABA ANALOGS, ANTISPASTICITY AGENTS, AND PRODRUGS OF GABA B RECEPTOR AGONISTS FOR TREATING SPASTICITY” (XenoPort, Inc., priority 2007, published 2009).
Some of these results come from one statement about several compounds together. At least one structure is not confirmed: it was looked up by name or label, or the drawing left a doubt.

test: Uptake of R-baclofen following intracolonic administration of R-baclofen or R-baclofen prodrugs in rats; assay type: in vivo; settings: rat, 10 mg baclofen equivalents per kg

SMILES	area under the baclofen plasma concentration vs. time curve (AUC) relative to colonic administration of R-baclofen itself [fold]	maximum plasma concentration of R-baclofen (Cmax) relative to colonic administration of R-baclofen itself [fold]
CCOC(C)(OCC)C(=O)OCOC(=O)NC[C@H](CC(=O)[O-])c1ccc(Cl)cc1.[Na+]	> 2	> 2
CC(OC(=O)NC[C@H](CC(=O)[O-])c1ccc(Cl)cc1)OC(=O)c1ccccc1.[Na+] (some centres unmarked)	> 2	> 2
CC(C)C(=O)O[C@@H](OC(=O)NC[C@H](CC(=O)[O-])c1ccc(Cl)cc1)C(C)C.[Na+] [sodium 4-{[(1S)-isobutanoyloxyisobutoxy]carbonylamino}-(3R)-(4-chlorophenyl)-butanoate]	> 2	> 2
O=C([O-])C[C@@H](CNC(=O)OCOC(=O)c1ccccc1)c1ccc(Cl)cc1.[Na+]	> 2	> 2
CC(C)C(=O)O[C@H](OC(=O)NC[C@H](CC(=O)[O-])c1ccc(Cl)cc1)C(C)C.[Na+]	> 2	> 2
CCCC(=O)OC(OC(=O)NC[C@H](CC(=O)[O-])c1ccc(Cl)cc1)C(C)C.[Na+] (stereo partly drawn) [sodium 4-[(1-butanoyloxyisobutoxy)carbonylamino]-(3R)-(4-chlorophenyl)-butanoate]	> 2	> 2
CC(C)C(=O)OC(OC(=O)NC[C@H](CC(=O)[O-])c1ccc(Cl)cc1)C(C)C.[Na+] (some centres unmarked)	> 2	> 2
